Experimental data published in paper PMC3036730.
These are yes or no findings as the source states them, for the method shown. Binding seen in cells or lysates may run through a third protein. Some binding calls cover weakened binding; strength is not graded here. Sequences can lack the tags named with a protein.

Sequences of proteins named here, by UniProt entry; tags and fusion partners are left off.
UniProt P09296: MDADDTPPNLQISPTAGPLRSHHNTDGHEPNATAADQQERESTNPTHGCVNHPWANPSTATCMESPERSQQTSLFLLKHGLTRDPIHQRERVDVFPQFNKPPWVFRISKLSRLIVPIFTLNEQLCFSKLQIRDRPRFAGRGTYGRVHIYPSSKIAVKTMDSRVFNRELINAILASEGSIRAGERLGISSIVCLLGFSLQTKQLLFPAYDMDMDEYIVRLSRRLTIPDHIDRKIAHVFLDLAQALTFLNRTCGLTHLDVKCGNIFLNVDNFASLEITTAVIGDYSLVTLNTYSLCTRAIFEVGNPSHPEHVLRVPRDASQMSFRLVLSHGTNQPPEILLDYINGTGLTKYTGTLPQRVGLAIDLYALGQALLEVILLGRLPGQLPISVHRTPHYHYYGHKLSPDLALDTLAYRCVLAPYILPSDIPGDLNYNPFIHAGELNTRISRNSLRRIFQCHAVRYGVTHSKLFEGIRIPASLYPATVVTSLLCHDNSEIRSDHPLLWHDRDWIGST

B1: V5-tagged IRF3 (protein, UniProt Q14653 1-427)
chain: MGTPKPRILPWLVSQLDLGQLEGVAWVNKSRTRFRIPWKHGLRQDAQQEDFGIFQAWAEATGAYVPGRDKPDLPTWKRNFRSALNRKEGLRLAEDRSKDPHDPHKIYEFVNSGVGDFSQPDTSPDTNGGGSTSDTQEDILDELLGNMVLAPLPDPGPPSLAVAPEPCPQPLRSPSLDNPTPFPNLGPSENPLKRLLVPGEEWEFEVTAFYRGRQVFQQTISCPEGLRLVGSEVGDRTLPGWPVTLPDPGMSLTDRGVMSYVRHVLSCLGGGLALWRAGQWLWAQRLGHCHTYWAVSEELLPNSGHGPDGEVPKDKEGGVFDLGPFIVDLITFTEGSGRSPRYALWFCVGESWPQDQPWTKRLVMVKVVPTCLRALVEMARVGGASSLENTVDLHISNSHPLSLTSDQYKAYLQDLVEGMDFQGPGES

What was measured:
[1] = target: T1, V5-tagged IRF3 (UniProt Q14653); experiment: co-IP; HEK-293 co-transfected with HA-ORF47 and V5-IRF3, 24 h later infected or not with VZV ROka47S for 24 h; IRF3 immunoprecipitated from total extracts with anti-IRF3 overnight at 4°C, protein A-Agarose, five washes in NP-40 Wash Buffer; blot anti-HA
T1 sequence: B1 chain

[2] = target: HA-tagged ORF47 (Varicella-Zoster Virus ORF47 protein kinase) (Varicella-Zoster Virus) (UniProt P09296); experiment: co-IP; data not shown; HA-ORF47 immunoprecipitated from total extracts of transfected HEK-293 with anti-HA; blot anti-IRF3

Molecule	binding [1]	binding [2]
HA-tagged ORF47 (Varicella-Zoster Virus ORF47 protein kinase) (from UniProt P09296 1-510) (enzyme)	binds	–
B1	–	binds
